Reference: publication PMC4643199
These are yes or no findings as the source states them, for the method shown.

Protein sequences, listed by entry. Tags and fused reporters are not part of them.
UniProt P47936: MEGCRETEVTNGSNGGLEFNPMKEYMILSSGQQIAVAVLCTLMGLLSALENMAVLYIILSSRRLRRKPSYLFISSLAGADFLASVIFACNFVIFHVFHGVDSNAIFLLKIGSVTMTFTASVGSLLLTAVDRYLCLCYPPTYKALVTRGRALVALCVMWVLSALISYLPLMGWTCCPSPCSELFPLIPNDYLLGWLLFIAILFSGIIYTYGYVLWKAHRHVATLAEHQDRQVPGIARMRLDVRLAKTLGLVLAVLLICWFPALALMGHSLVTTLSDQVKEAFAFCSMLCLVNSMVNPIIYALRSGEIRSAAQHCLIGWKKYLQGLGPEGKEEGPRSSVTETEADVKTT

Target: mouse cannabinoid receptor 2 (mouse) (UniProt P47936)
Test: condition: dimerization cannot exceed 29% (90% confidence); single-molecule two-colour coincidence (smTIRF microscopy); HEK-293T cells cotransfected with HaloTag- and SNAP-tag-fused copies, labelled with HaloTag TMR Ligand and SNAP-Cell 505-Star, fixed in 4% formaldehyde; coincidence = HaloTag spots within 300 nm of a SNAP-tag spot for at least 10 frames, relative to all HaloTag spots; referenced to CD86 (monomer) and CD28 (dimer)

In the case of “mouse cannabinoid receptor 2 (from UniProt P47936 1-347)”, the binding is reported as “no binding”.
